Laboratory results published in paper PMC12570964 (Nature Microbiology, 2025).
No constants are given. Whether binding was seen depends on the method and setting. For some of these results: Binding seen in cells or lysates may run through a third protein. Some entries that bind do so weakly or less than the wild type. For some of these results: Sequences can lack the tags named with a protein.

B1: mouse IFIT2 (M. musculus Ifit2, co-expressed with Ifit3 in E. coli) (natural protein, UniProt Q64112 1-472, looked up)
chain: MSTTSKESLVCNLRQLKCHFTWNLIAEDESLDEFEDRVFNKDEFQNSEFKATMCNILAYVKHCRGLNEAALQCLGEAEGFIQQQHPDQVEIRSLVTWGNYAWVYYHMGQFSKAQAYLDKVKQVCKKFSSPYRIENPALDCEEGWARLKCTKNQNERVKVCFQKALEKDPKNPEFTSGWAIAFYRLDDWPARNYCIDSLEQAIQLSPDNTYVKVLLALKLDAVHVHKNQAMALVEEALKKDPSAIDTLLRAARFYCKVYDTDRAIQLLRKALEKLPNNAYVHYYMGCCYRSKVHHMLNRREMVFSGDRKKLEELIQLAVNHLRKAEEIKEMLEYSCSFLADLYIIAKKYDEADYYFQKELSKDLPPGPKQLLHLRYGNFQFFQMKRQDKAIYHYMEGVKIKKKTIPQKKMREKLQRIALRRLHEDESDSEALHILAFLQENGGGQQADKDSERGVDSANQVPSASLDEDGAEY
notes: also called interferon-induced protein with tetratricopeptide repeats 2; source: E. coli Rosetta pLysS, co-expressed with Ifit3, purified (nickel column, TEV cleavage, Superdex 200 size exclusion)
B2: 3×FLAG-tagged mouse IFIT2 (protein, UniProt Q64112 1-472)
chain: B1 chain
B3: endogenous human IFIT1 (protein, UniProt P09914 1-478)
chain: MSTNGDDHQVKDSLEQLRCHFTWELSIDDDEMPDLENRVLDQIEFLDTKYSVGIHNLLAYVKHLKGQNEEALKSLKEAENLMQEEHDNQANVRSLVTWGNFAWMYYHMGRLAEAQTYLDKVENICKKLSNPFRYRMECPEIDCEEGWALLKCGGKNYERAKACFEKVLEVDPENPESSAGYAISAYRLDGFKLATKNHKPFSLLPLRQAVRLNPDNGYIKVLLALKLQDEGQEAEGEKYIEEALANMSSQTYVFRYAAKFYRRKGSVDKALELLKKALQETPTSVLLHHQIGLCYKAQMIQIKEATKGQPRGQNREKLDKMIRSAIFHFESAVEKKPTFEVAHLDLARMYIEAGNHRKAEENFQKLLCMKPVVEETMQDIHFHYGRFQEFQKKSDVNAIIHYLKAIKIEQASLTRDKSINSLKKLVLRKLRRKALDLESLSLLGFVYKLEGNMNEALEYYERALRLAADFENSVRQGP
B4: overexpressed human IFIT1 (protein, UniProt P09914 1-478)
chain: B3 chain

How the values were obtained:
[1] = target: T1, mouse IFIT3 (M. musculus Ifit3, co-expressed with Ifit2 in E. coli) (M. musculus) (UniProt Q64345); experiment: cryo-EM structure; both purified
T1 sequence: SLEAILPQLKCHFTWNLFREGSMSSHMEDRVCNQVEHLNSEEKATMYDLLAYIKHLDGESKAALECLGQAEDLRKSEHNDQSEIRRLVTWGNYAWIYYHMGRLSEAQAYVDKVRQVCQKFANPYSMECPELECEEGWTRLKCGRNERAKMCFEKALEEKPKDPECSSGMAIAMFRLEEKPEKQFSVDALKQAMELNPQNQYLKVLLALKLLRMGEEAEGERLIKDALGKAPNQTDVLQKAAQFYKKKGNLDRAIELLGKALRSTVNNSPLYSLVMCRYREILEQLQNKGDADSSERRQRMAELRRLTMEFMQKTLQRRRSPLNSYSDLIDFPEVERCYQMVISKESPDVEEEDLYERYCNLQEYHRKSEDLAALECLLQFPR

[2] = target: T2, HA-tagged mouse IFIT3 (mouse) (UniProt Q64345); experiment: co-IP
T2 sequence: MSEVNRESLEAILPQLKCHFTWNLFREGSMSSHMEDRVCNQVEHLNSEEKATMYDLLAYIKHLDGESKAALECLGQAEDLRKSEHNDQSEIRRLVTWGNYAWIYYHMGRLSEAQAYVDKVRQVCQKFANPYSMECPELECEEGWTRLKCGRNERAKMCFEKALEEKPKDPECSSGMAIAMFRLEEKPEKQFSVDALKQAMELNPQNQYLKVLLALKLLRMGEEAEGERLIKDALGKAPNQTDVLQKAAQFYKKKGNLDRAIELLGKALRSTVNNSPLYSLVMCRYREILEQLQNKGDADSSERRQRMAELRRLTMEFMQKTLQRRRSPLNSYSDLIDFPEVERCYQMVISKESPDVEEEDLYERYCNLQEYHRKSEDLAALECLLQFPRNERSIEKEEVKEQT

Binder	binding [1]	binding [2]
B1	binds	–
B2	–	binds
B3	–	no binding
B4	–	no binding
